Experimental findings from the supplement of paper PMC10849652 are described below.

Protein sequences, listed by entry. Tags and fused reporters are not part of them. Lines headed by an entry give the natural chain unless they say otherwise; changes in a name come on top.
UniProt P15907: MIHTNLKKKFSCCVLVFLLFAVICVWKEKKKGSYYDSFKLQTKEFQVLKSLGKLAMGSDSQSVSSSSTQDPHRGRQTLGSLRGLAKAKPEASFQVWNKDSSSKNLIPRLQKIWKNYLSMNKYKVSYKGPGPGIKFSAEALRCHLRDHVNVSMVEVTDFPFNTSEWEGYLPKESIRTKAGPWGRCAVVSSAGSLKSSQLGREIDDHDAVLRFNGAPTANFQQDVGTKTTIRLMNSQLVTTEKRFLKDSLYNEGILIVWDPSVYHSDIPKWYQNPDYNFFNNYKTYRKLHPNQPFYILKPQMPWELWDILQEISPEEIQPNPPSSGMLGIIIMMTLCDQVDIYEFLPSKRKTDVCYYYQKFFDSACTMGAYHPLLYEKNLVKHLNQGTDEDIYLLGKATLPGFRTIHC
UniProt P08240: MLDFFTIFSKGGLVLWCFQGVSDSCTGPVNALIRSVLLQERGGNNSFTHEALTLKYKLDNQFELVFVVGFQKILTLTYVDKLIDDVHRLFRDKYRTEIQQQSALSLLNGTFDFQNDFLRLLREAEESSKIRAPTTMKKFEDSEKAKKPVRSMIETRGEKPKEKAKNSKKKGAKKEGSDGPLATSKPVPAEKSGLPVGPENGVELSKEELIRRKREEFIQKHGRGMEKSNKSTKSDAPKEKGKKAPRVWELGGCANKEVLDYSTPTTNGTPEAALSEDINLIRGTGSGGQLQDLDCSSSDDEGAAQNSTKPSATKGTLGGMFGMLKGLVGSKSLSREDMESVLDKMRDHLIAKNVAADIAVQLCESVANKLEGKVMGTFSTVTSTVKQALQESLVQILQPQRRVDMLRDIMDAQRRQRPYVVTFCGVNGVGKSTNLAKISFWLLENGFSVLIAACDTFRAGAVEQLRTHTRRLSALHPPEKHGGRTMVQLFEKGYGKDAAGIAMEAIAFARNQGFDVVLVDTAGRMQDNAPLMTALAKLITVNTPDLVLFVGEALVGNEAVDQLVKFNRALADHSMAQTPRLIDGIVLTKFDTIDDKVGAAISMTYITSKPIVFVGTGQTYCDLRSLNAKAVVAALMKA
UniProt Q9HBM1: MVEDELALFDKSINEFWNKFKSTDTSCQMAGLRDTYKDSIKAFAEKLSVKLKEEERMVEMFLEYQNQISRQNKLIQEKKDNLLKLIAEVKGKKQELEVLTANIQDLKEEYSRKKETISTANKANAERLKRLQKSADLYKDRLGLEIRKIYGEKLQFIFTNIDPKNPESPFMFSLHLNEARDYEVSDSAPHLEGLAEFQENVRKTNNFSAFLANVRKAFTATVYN
UniProt Q9NZD8: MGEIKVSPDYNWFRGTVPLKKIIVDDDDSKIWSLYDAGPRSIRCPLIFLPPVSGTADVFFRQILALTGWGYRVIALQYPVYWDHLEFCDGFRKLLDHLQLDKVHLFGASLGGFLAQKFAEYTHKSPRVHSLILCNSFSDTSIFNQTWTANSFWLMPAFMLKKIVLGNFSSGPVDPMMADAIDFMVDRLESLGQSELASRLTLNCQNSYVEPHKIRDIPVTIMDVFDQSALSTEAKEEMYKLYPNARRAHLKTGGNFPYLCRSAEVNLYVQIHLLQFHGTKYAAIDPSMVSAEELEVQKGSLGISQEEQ
UniProt Q6ZUB1: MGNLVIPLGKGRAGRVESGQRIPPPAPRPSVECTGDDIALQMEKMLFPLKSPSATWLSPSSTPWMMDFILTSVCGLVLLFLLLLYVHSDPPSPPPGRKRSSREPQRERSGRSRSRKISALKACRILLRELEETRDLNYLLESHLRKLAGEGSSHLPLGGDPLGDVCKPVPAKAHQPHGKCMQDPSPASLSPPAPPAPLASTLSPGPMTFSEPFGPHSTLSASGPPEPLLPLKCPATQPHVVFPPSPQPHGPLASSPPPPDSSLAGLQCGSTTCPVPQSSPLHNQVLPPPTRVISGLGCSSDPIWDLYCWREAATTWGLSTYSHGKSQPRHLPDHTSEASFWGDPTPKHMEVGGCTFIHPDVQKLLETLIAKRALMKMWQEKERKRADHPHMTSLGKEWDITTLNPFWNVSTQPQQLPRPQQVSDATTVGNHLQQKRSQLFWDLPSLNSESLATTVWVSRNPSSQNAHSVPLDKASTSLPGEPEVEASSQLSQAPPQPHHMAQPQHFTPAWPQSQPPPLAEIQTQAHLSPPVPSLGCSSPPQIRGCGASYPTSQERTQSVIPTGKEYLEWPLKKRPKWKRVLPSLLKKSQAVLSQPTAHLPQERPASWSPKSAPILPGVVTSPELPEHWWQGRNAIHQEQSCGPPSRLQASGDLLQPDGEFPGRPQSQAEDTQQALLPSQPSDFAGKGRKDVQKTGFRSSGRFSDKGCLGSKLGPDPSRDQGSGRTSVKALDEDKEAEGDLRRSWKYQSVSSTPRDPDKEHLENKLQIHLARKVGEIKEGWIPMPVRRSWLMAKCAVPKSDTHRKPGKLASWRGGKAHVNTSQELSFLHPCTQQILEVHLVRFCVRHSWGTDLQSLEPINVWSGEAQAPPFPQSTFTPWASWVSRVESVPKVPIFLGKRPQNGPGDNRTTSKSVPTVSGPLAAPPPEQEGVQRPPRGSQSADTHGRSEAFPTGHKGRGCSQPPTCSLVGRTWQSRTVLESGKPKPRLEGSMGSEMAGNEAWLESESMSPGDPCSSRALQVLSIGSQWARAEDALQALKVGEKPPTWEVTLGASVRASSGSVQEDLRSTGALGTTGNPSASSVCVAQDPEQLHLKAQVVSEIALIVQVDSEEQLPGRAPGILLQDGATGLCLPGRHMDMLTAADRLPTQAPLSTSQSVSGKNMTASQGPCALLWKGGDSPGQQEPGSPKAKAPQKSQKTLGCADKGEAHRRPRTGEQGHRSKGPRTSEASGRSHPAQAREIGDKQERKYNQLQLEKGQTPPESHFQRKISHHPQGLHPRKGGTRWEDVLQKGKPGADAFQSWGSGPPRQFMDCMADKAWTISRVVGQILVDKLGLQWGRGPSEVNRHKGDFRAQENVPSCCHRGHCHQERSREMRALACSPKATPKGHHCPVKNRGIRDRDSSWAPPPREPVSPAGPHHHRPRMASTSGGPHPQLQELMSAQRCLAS
UniProt O76094: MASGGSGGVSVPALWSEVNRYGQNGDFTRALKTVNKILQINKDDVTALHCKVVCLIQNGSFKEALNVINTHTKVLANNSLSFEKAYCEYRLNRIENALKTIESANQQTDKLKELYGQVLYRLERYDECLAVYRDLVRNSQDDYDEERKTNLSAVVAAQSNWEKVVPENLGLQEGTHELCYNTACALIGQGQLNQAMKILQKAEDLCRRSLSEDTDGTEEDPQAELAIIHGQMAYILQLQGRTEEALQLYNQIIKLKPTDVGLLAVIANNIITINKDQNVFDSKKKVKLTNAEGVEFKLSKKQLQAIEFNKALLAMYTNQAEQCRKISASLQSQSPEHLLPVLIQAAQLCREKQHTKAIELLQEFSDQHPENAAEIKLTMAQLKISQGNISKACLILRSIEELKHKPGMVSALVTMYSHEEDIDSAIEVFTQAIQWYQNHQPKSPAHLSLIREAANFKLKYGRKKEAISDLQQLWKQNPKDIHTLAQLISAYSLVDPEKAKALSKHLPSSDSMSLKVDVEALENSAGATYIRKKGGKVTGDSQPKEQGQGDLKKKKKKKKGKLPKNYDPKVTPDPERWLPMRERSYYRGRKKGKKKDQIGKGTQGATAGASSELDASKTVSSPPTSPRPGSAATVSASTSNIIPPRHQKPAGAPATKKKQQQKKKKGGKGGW
UniProt Q16385, whole entry, looked up: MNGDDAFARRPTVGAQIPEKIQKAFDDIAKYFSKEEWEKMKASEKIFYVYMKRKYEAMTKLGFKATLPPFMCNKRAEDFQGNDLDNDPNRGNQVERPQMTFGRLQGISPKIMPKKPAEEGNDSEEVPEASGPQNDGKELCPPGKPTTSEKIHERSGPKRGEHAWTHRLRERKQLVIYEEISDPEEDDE
UniProt Q8NB90: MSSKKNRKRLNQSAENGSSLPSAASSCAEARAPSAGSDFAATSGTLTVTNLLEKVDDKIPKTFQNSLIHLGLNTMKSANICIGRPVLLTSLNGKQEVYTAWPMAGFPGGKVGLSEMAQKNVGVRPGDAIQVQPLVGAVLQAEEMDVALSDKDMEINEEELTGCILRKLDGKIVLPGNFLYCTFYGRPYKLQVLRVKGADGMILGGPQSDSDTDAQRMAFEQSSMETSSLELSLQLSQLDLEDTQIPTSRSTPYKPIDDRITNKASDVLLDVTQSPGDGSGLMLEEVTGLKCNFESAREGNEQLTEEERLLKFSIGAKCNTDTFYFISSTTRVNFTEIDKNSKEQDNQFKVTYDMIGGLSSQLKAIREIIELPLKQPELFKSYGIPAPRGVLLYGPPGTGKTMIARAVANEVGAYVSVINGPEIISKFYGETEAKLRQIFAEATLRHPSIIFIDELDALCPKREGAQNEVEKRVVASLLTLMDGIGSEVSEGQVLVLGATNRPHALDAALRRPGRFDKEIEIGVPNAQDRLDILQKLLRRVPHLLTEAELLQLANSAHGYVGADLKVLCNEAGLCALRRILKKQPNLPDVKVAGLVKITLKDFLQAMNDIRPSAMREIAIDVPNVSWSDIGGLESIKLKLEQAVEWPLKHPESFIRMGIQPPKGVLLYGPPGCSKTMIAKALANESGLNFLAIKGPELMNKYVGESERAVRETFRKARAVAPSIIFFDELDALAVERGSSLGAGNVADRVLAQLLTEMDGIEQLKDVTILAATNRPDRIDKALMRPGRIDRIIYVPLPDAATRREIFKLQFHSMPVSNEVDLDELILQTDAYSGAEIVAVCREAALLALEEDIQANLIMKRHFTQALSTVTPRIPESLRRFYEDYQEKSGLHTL
UniProt P61009: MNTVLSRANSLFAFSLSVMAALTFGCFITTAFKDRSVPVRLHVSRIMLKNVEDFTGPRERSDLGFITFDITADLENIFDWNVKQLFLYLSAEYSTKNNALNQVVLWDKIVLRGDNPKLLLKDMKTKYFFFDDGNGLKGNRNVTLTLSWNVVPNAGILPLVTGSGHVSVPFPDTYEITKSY
UniProt P19623: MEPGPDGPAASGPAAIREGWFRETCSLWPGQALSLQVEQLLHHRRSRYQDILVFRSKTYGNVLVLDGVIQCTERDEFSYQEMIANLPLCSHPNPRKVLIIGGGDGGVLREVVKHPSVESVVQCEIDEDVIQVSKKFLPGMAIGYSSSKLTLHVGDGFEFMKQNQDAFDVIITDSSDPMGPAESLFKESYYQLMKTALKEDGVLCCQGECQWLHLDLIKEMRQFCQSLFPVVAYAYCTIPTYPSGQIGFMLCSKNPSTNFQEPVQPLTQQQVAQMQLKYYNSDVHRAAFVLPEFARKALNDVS
UniProt Q9NSC7: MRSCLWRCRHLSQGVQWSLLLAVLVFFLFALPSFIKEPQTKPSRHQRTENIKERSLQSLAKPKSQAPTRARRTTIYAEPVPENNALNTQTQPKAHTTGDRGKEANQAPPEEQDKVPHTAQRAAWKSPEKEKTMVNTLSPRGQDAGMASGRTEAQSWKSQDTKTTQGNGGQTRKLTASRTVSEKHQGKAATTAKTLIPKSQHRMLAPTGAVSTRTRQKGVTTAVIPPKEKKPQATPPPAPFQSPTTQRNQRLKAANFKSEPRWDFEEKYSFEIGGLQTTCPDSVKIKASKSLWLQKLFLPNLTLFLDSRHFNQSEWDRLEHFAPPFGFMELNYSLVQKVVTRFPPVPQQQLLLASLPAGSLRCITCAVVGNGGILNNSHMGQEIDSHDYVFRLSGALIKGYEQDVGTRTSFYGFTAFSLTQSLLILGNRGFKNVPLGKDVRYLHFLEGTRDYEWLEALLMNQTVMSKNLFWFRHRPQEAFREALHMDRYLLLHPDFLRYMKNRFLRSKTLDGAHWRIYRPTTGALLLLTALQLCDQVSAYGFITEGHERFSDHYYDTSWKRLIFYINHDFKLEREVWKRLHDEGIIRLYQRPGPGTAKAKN
UniProt P10124: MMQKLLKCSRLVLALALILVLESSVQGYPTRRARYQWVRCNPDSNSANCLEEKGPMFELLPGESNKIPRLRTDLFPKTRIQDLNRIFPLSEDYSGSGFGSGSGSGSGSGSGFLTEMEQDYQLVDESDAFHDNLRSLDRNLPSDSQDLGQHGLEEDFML
UniProt Q9Y657, whole entry, looked up: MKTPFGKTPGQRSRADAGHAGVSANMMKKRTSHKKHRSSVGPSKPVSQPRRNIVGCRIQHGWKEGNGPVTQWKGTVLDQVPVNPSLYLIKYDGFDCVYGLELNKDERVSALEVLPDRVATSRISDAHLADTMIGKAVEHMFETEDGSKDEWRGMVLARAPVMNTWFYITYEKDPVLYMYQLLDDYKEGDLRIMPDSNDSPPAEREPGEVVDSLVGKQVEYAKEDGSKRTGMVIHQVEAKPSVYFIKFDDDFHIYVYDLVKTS

The list shows a part of the results.

Common to all, as to assay: log2 fold change, soluble protein after heating vs DMSO (PISA); higher = thermal stabilisation; K562 cells, 10 uM, 30 min; active = over 0.2 and 3.5 SD of the protein, either way, in both replicates (recomputed)
Compound in experiment [1]: COC1=CC=C(C=C1)CN2C=CC3=C2C=C(C=C3)C(=O)NO
The procedure, abridged: (§1)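 K562 cells (2×10^6 cells/mL) were treated with 10 μM compound for 30 min, and aliquots were heated for 3 min over 48°C-58°C. Pooled aliquots were extracted in PBS with 0.5% NP-40 at 4°C, and the supernatant after 21,000xg for 90 min was measured by TMTpro 16plex LC-MS/MS with channel sums equalised. Reported thermal stability, relative to control samples and from duplicates, is a log2 fold change.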

Compound in the next experiment: CON(C)C(=O)N1N=C(c2cc(F)ccc2F)S[C@@]1(CCCN)c1ccccc1 [filanesib]
The procedure, abridged:
as §1

Compound in another experiment: CO[C@H]1C[C@@H]2CC[C@@H](C)[C@@](O)(O2)C(=O)C(=O)N2CCCC[C@H]2C(=O)O[C@H]([C@H](C)C[C@@H]2CC[C@H](n3cnnn3)[C@H](OC)C2)CC(=O)[C@H](C)/C=C(\C)[C@@H](O)[C@@H](OC)C(=O)[C@H](C)C[C@H](C)/C=C/C=C/C=C/1C [zotarolimus]
The essentials:
as §1

Compound in the next experiment: COc1cc(C(=O)O)ccc1NC(=O)[C@@H]1N[C@@H](CC(C)(C)C)[C@](C#N)(c2ccc(Cl)cc2F)[C@H]1c1cccc(Cl)c1F [idasanutlin]
The essentials:
as §1

Compound in another experiment: COc1cc(Nc2ncc3c(n2)-c2ccc(Cl)cc2C(c2c(F)cccc2OC)=NC3)ccc1C(=O)O [alisertib]
The procedure, abridged:
as §1

Compound in experiment [2]: COc1cc2nc(-c3cc(F)ccc3O)nc(N[C@@H]3CNC[C@H]3C(C)(C)O)c2cc1OC
The essentials:
as §1

Compound in a further experiment: COc1cc2ncnc(Nc3ccc(F)c(Cl)c3)c2cc1OCCCN1CCOCC1 [gefitinib]
The procedure, abridged:
as §1

Compound in experiment [3]: COc1cccc2cc(-c3nc([C@H]4CC[C@H](C(=O)O)CC4)n4ncnc(N)c34)[nH]c12
The essentials:
as §1

Compound in the next experiment: CS(=O)(=O)CCNCc1ccc(-c2ccc3ncnc(Nc4ccc(OCc5cccc(F)c5)c(Cl)c4)c3c2)o1 [lapatinib]
The procedure, abridged:
as §1

Compound in the next experiment: CS(=O)(=O)N1CCN(Cc2cc3nc(-c4cccc5[nH]ncc45)nc(N4CCOCC4)c3s2)CC1 [pictilisib]
The essentials:
as §1

For ST6GAL1 (UniProt P15907), the log2 fold change in experiment [1] was inactive: 0.013; with filanesib, active: 0.224; with zotarolimus, inactive: 0.051; in the experiment with idasanutlin, inactive: 0.066; in the experiment with alisertib, inactive: -0.085; in experiment [2], inactive: 0.046. The log2 fold change was inactive: 0.095 with gefitinib, inactive: -0.003 in experiment [3], inactive: 0.116 with lapatinib and inactive: 0.063 in the experiment with pictilisib.
For the target SRPRA (UniProt P08240), the log2 fold change in experiment [1] is inactive: 0.008; with filanesib, inactive: -0.022; with zotarolimus, inactive: -0.005; in the experiment with idasanutlin, inactive: -0.107; with alisertib it was inactive: -0.005; in [2], inactive: 0.122. The log2 fold change with gefitinib is inactive: -0.032; in [3], inactive: -0.002; in the experiment with lapatinib it was inactive: 0.013; with pictilisib, inactive: -0.012.
With SPC25 (UniProt Q9HBM1), the log2 fold change is inactive: 0.048 in experiment [1]; inactive: 0.021 with filanesib; inactive: 0.037 with zotarolimus; inactive: -0.024 with idasanutlin; inactive: -0.056 in the experiment with alisertib; inactive: -0.076 in experiment [2]. Further, the log2 fold change with gefitinib was inactive: 0.028; in [3], inactive: -0.054; with lapatinib, inactive: 0.008; with pictilisib, inactive: -0.012.
Take SPG21 (UniProt Q9NZD8): the log2 fold change is inactive: -0.026 in experiment [1]; inactive: 0 in the experiment with filanesib; inactive: 0.063 with zotarolimus; inactive: 0.03 in the experiment with idasanutlin; inactive: -0.084 with alisertib; inactive: 0.174 in experiment [2]. The log2 fold change in the experiment with gefitinib was inactive: 0.226; in [3], inactive: 0.011; with lapatinib it was inactive: 0.072; with pictilisib, inactive: 0.064.
On to SPATA31E1 (UniProt Q6ZUB1), for which the log2 fold change in [1] is inactive: -0.422; in the experiment with filanesib, inactive: 0.135; in the experiment with zotarolimus it was inactive: -0.189; in the experiment with idasanutlin, inactive: 0.165; with alisertib it was inactive: 0.246; in [2], inactive: 0.153. Further, the log2 fold change was inactive: 0.019 with gefitinib, inactive: 0.195 in [3], inactive: -0.381 in the experiment with lapatinib and inactive: 0.389 in the experiment with pictilisib.
Turning to SRP72 (UniProt O76094), the log2 fold change in [1] is inactive: 0.003; with filanesib, inactive: 0.075; in the experiment with zotarolimus it was inactive: 0.048; with idasanutlin it was inactive: -0.045; in the experiment with alisertib it was inactive: -0.131; in [2], inactive: 0.023. The log2 fold change was inactive: 0.007 with gefitinib, inactive: -0.235 in experiment [3], inactive: -0.043 with lapatinib and inactive: 0 with pictilisib.
Take SSX2 (UniProt Q16385): the log2 fold change is inactive: 0.083 in experiment [1]; inactive: 0.009 in the experiment with filanesib; inactive: -0.014 with zotarolimus; inactive: -0.021 in the experiment with idasanutlin; inactive: 0.035 with alisertib; inactive: 0.025 in experiment [2]. In addition, the log2 fold change in the experiment with gefitinib is inactive: 0.032; in experiment [3], inactive: 0.004; with lapatinib, inactive: -0.011; in the experiment with pictilisib, inactive: 0.064.
In the case of STAT5A (UniProt P42229), the log2 fold change in experiment [1] was inactive: 0.034; in the experiment with filanesib it was inactive: 0.018; with zotarolimus it was inactive: 0.094; with idasanutlin, inactive: 0.032; with alisertib, inactive: -0.056; in experiment [2], inactive: 0.009. Moreover, the log2 fold change in the experiment with gefitinib was inactive: 0.047; in experiment [3] it was inactive: -0.128; with lapatinib, inactive: 0; with pictilisib, inactive: -0.096.
On to SPATA5 (UniProt Q8NB90), for which the log2 fold change in experiment [1] is inactive: -0.004; with filanesib, inactive: 0.046; in the experiment with zotarolimus it was inactive: -0.014; with idasanutlin, inactive: -0.008; in the experiment with alisertib, inactive: -0.042; in experiment [2], inactive: 0.012. For the same target, the log2 fold change is inactive: -0.002 in the experiment with gefitinib, inactive: 0.006 in experiment [3], inactive: 0 in the experiment with lapatinib and inactive: 0 with pictilisib.
On to SPCS3 (UniProt P61009), for which the log2 fold change in [1] is inactive: -0.114; with filanesib, inactive: 0.054; in the experiment with zotarolimus, inactive: -0.017; with idasanutlin it was inactive: 0.067; with alisertib, inactive: -0.05; in experiment [2] it was inactive: 0.034. Moreover, the log2 fold change with gefitinib is inactive: 0.004; in experiment [3] it was inactive: -0.011; in the experiment with lapatinib it was inactive: 0.007; with pictilisib it was inactive: -0.013.
Turning to SPG11 (UniProt Q96JI7), the log2 fold change in experiment [1] was inactive: -0.232; with filanesib it was inactive: 0.158; with zotarolimus it was inactive: -0.415; with idasanutlin it was inactive: -0.118; with alisertib, inactive: 0.388; in [2] it was inactive: 0.14. Further, the log2 fold change was inactive: -0.032 with gefitinib, inactive: 0.331 in experiment [3], inactive: -0.167 with lapatinib and inactive: 0.401 with pictilisib.
For the target SRM (UniProt P19623), the log2 fold change in experiment [1] is inactive: -0.001; with filanesib it was inactive: -0.118; in the experiment with zotarolimus, inactive: 0.012; with idasanutlin, inactive: -0.086; in the experiment with alisertib it was inactive: -0.117; in experiment [2], inactive: -0.005. Besides, the log2 fold change in the experiment with gefitinib was inactive: 0.01; in experiment [3] it was inactive: 0.025; with lapatinib, inactive: -0.003; with pictilisib it was inactive: 0.073.
For ST6GALNAC1 (UniProt Q9NSC7), the log2 fold change in experiment [1] was inactive: -0.021; with filanesib it was inactive: -0.02; with zotarolimus, inactive: 0.036; with idasanutlin, inactive: 0.067; in the experiment with alisertib it was inactive: -0.068; in [2], inactive: 0.134. The log2 fold change in the experiment with gefitinib is inactive: 0.137; in experiment [3], inactive: 0.003; with lapatinib it was inactive: -0.246.
On to SRGN (UniProt P10124), for which the log2 fold change in experiment [1] was inactive: 0.04; with filanesib, inactive: 0.267; in the experiment with zotarolimus, inactive: 0.099; with idasanutlin, inactive: 0.069; with alisertib, inactive: -0.027; in experiment [2], inactive: 0.028. The log2 fold change in the experiment with gefitinib is inactive: 0.208; in experiment [3] it was inactive: 0.014; with lapatinib, inactive: 0.121; with pictilisib, inactive: -0.029.
With SPIN1 (UniProt Q9Y657), the log2 fold change in [1] is inactive: -0.045; with filanesib it was inactive: 0.084; with zotarolimus it was inactive: -0.025; in the experiment with idasanutlin, inactive: 0.077; in the experiment with alisertib, inactive: -0.058; in experiment [2], inactive: 0.039. Besides, the log2 fold change was inactive: 0.054 with gefitinib, inactive: 0.044 in [3], inactive: -0.011 in the experiment with lapatinib and inactive: 0.061 with pictilisib.
